Results reported in ChEMBL document CHEMBL5346862, “Discovery of the thieno[2,3-d]pyrimidine-2,4-dione derivative 21a: A potent and orally bioavailable gonadotropin-releasing hormone receptor antagonist” (Eur J Med Chem, 2022).

Assay: Efflux ratio of apparent permeability across basolateral to apical side over apical to basolateral side in human Caco-2 cells incubated for 180 mins by LC/MS/MS analysis
Type: ADME, cell-based

efflux ratio at 3 h: 938
Compound: C[C@H]1O[C@@H](O[C@H]2[C@@H](O)C[C@H](O[C@H]3[C@@H](O)C[C@H](O[C@H]4CC[C@@]5(C)[C@H](CC[C@@H]6[C@@H]5C[C@@H](O)[C@]5(C)[C@@H](C7=CC(=O)OC7)CC[C@]65O)C4)O[C@@H]3C)O[C@@H]2C)C[C@H](O)[C@@H]1O [DIGOXIN]
